{"source": "paper doi:10.1101/2025.03.06.641832", "about": "(bioRxiv, 2025)", "target": "constitutively active PKCα catalytic domain, HA-tagged (PKCα-CAT-HA) (UniProt P17252)", "experiment": "co-IP", "note": "These are yes or no findings as the source states them, for the method shown. In cells and extracts the contact can be indirect. Binding calls can cover weak binding; strength is not graded here."}
{"substance": "influenza A/H1N1/WSN nucleoprotein, V5-tagged (NP-V5) (from UniProt P15682 8-498)", "values": [{"measurement": "binding", "value": "binds"}]}
